The whole screen tested about 330,000 compounds, of which about 7,700 (2.3%) were called active. Inconclusive results, whose numbers are uncertain, are shown with a selection of clear calls. Calls come from the whole dose curve; as a rule, active = well fitted inhibition curve with a large enough effect; inconclusive = small, poorly fitted or top-dose-only effect, or effect the other way; inactive = flat fitted curve, though single readings scatter. Potencies beside an inconclusive call are fits to weak or partial responses and may not hold up.
assay: qHTS screen for small molecules that inhibit ELG1-dependent DNA repair in human embryonic kidney (HEK293T) cells expressing luciferase-tagged ELG1; conditions: HEK293T ELG1-luciferase reporter, luminescence, 16 h, DNA damage induced by 5-fluorouridine; series mostly up to 46.1 µM; note: nearly all actives have a fitted effect of over 55% in size
Method in brief: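 In this reporter screen, reduction of luminescence relative to DMSO vehicle indicated activity. Compounds and 5-fluorouridine were added together to 2,000 cells per well, incubated for 16 hr at 37 °C, then developed with ONE-Glo.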
Potency is the fitted concentration of half-maximal effect.

Compound | Potency
O=C(O)/C=C/C(=O)OC1CC2CCC1C2 (stereo not drawn) | inconclusive: 25.9 µM [activator, single point]
COc1cc(NC(=O)CN2CCN(c3ccccc3O)CC2)c(C)cc1[N+](=O)[O-] | active: 20.6 µM
Cc1nn(-c2ccccc2)c2c1cc1c(=O)n(C)c(=O)nc-1n2-c1ccccc1F | inconclusive: 18.3 µM [inhibitor, partial curve, poor fit]
COc1ccc(N2CCN(CCCNC(=O)CN3CCN(Cc4ccccc4C)C3=O)CC2)cc1 | inconclusive: 16.4 µM [inhibitor, partial curve]
Cc1sc(NC(=O)c2ccco2)c(C(c2ccccc2)N2CCC(C)CC2)c1C (stereo not drawn) | inconclusive: 2.91 µM [inhibitor, partial curve, poor fit]
COc1cccc(-c2cn3nc4c(nc3n2)CCCC4)c1 | inconclusive: 0.58 µM [activator, full curve]
COc1ccc(NC(=O)CN(C)C(=O)CSc2ccc(Br)cc2)cc1 | inactive
c1ccc(-n2nnc3ccccc32)cc1 | inconclusive: 1.83 µM [inhibitor, partial curve, poor fit]
COc1cccc(CNC(=S)Nc2cc(OC)ccc2OC)c1 | inactive
O=C(NCCOc1nc(N2CCCCC2)nc(N2CCOCC2)n1)Nc1ccccc1 | inconclusive: 20.6 µM [inhibitor, single point]
Cc1ccc(N2CC(C(=O)Nc3ccc4c(c3)OCCO4)CC2=O)cc1C (stereo not drawn) | inconclusive: 14.6 µM [activator, single point]
COc1ccc(CCNC(=O)c2ccc(CN3CCC(Cc4ccccc4)CC3)cc2)cc1OC | inactive
Cc1cccc(NS(=O)(=O)c2cccc(C(=O)N3CCCC(C(F)(F)F)C3)c2)c1 (stereo not drawn) | inactive
Cc1ccc(NC(=O)c2cc(S(=O)(=O)N(C)C)ccc2N2CCCC2)cc1S(=O)(=O)N(C)C | inconclusive: 25.9 µM [inhibitor, single point]
O=C1/C(=C/N(C(=O)c2ccco2)c2ccc(Cl)cc2)Sc2ccccc21 | inconclusive: 6.51 µM [activator, partial curve]
CCOC(=O)n1c(=O)n(C)c2ccc(Br)cc21 | inactive
Cc1csc(NC(=O)c2cc(-c3ccccc3)nc3ccccc23)n1 | inconclusive: 23.1 µM [inhibitor, single point]
CC(c1ccccc1)N(C)C(=O)CN1CCN(S(=O)(=O)c2ccc3c(c2)OCCCO3)CC1 (stereo not drawn) | inconclusive: 29.1 µM [inhibitor, single point]
CCN1C(=NCc2cccc(Cl)c2)N[C@@H](c2cccc(F)c2)C(C(=O)OC)=C1C | inactive
COc1cccc(N2CCN(c3ncnc4c3cnn4-c3ccc(C)cc3C)CC2)c1 | active: 3.26 µM
CSc1nsc(SCC(=O)Nc2ccccc2)n1 | inconclusive: 16.4 µM [activator, single point]
O=C(NC1CCOCC1)C1CCC(=O)N(Cc2ccc(Cl)cc2)C1 (stereo not drawn) | inactive
Cc1c(-c2ccccc2)oc2c(C(=O)N3CCN(c4ccc([N+](=O)[O-])cc4)CC3)cccc2c1=O | active: 3.26 µM

Compound | Potency
CCOc1ccc(N(C)S(=O)(=O)c2ccc3[nH]cc(C(=O)NCCOC)c(=O)c3c2)cc1 | inconclusive: 18.3 µM [inhibitor, single point]
CN(C)/C(Cn1cncn1)=C1/N=C(c2ccccc2)OC1=O | inactive
CC(OC(=O)c1ccc(Cl)nc1)C(=O)NC(C)(C)C (stereo not drawn) | inactive
C=CCn1c(SCc2ccc(C(=O)NCCO)cc2)nc2ccccc2c1=O | inconclusive: 0.316 µM [inhibitor, full curve, poor fit]
CS(=O)(=O)c1ccc2nc(NC(=O)CCNC(=O)c3ccccc3Cl)sc2c1 | inactive
O=C(O)CC/C(=N\Nc1ccc(S(=O)(=O)N2CCCC2)cc1[N+](=O)[O-])c1cccs1 | active: 20.6 µM
COc1ccc(-c2nnc(SCC(=O)c3[nH]c(C)c(C(C)=O)c3C)o2)cc1 | inconclusive: 7.31 µM [inhibitor, partial curve, poor fit]
N#CC1(NC(=O)COc2cccnc2[N+](=O)[O-])CCCCC1 | inconclusive: 25.9 µM [activator, partial curve, poor fit]
C/C=C/C(=O)N1CC2(CC(c3cccc(NC(=O)COc4ccc(Cl)cc4)c3)=NO2)C[C@@H]1C(N)=O (stereo partly drawn) | inconclusive: 25.9 µM [inhibitor, single point]
COc1ccc(-c2cn3c(C)c(C(=O)NC(C)(C)C)sc3n2)cc1 | inconclusive: 7.3 µM [activator, partial curve]
CCOc1ccc(OCc2ccc(C(=O)N3CCc4ccccc4C3)o2)cc1 | inconclusive: 20.6 µM [activator, single point]
O=c1c2ccccc2ncn1/N=C/c1ccccc1 | inconclusive: 10.3 µM [activator, partial curve]
Cc1nc(CNS(=O)(=O)c2ccc3c(c2)OCCO3)cs1 | inconclusive: 14.6 µM [inhibitor, single point]
COc1ccc(/C=N/NC(=O)c2ccc(N(C)S(=O)(=O)c3ccccc3)cc2)cc1OC | inactive
NS(=O)(=O)c1ccc(N/N=C/C=C/c2ccccc2[N+](=O)[O-])cc1 | inconclusive: 18.3 µM [activator, single point]
Cc1ccc(S(=O)(=O)NC2(C(F)(F)F)C(=O)Nc3c2c(=O)[nH]c(=O)n3-c2ccccc2)cc1 (stereo not drawn) | inconclusive: 23.1 µM [activator, single point]
COc1ccc(NC(=O)c2sc3nc(N4CCOCC4)c4c(c3c2N)CC(C)(C)OC4)cc1 | active: 0.411 µM
Cc1ccc(-c2nn(C)c(=O)c3ccccc23)cc1CNC(=O)c1ccco1 | inconclusive: 6.51 µM [activator, single point]
Cc1cccc(NC(=O)c2ccc(S(=O)(=O)NCc3ccco3)cc2)n1 | inconclusive: 4.11 µM [activator, full curve]
Cc1ccc(NC(=O)C(C)OC(=O)Cc2c[nH]c3ccccc23)cc1 (stereo not drawn) | inconclusive: 11.6 µM [inhibitor, partial curve, poor fit]
CC(C)(C)SCCNC(=O)Nc1ccccc1 | inconclusive: 23.1 µM [activator, single point]
CN(C(=S)NC(=O)C12CC3CC(CC(C3)C1)C2)c1ccc(O)cc1 | inactive
CCN(CC(=O)NCc1cccs1)C(=O)/C=C/c1cccc(Cl)c1Cl | inactive

Given in markdown: part of the list above.

| Compound | Potency |
| --- | --- |
| Cc1sc(NC(=O)c2ccco2)c(C(c2ccccc2)N2CCC(C)CC2)c1C (stereo not drawn) | inconclusive: 2.91 µM [inhibitor, partial curve, poor fit] |
| O=C(NCCOc1nc(N2CCCCC2)nc(N2CCOCC2)n1)Nc1ccccc1 | inconclusive: 20.6 µM [inhibitor, single point] |
| COc1ccc(CCNC(=O)c2ccc(CN3CCC(Cc4ccccc4)CC3)cc2)cc1OC | inactive |
| Cc1cccc(NS(=O)(=O)c2cccc(C(=O)N3CCCC(C(F)(F)F)C3)c2)c1 (stereo not drawn) | inactive |
| Cc1ccc(NC(=O)c2cc(S(=O)(=O)N(C)C)ccc2N2CCCC2)cc1S(=O)(=O)N(C)C | inconclusive: 25.9 µM [inhibitor, single point] |
| CCOC(=O)n1c(=O)n(C)c2ccc(Br)cc21 | inactive |
| O=C(NC1CCOCC1)C1CCC(=O)N(Cc2ccc(Cl)cc2)C1 (stereo not drawn) | inactive |
| Cc1c(-c2ccccc2)oc2c(C(=O)N3CCN(c4ccc([N+](=O)[O-])cc4)CC3)cccc2c1=O | active: 3.26 µM |
| CCOc1ccc(N(C)S(=O)(=O)c2ccc3[nH]cc(C(=O)NCCOC)c(=O)c3c2)cc1 | inconclusive: 18.3 µM [inhibitor, single point] |
| CN(C)/C(Cn1cncn1)=C1/N=C(c2ccccc2)OC1=O | inactive |
| C=CCn1c(SCc2ccc(C(=O)NCCO)cc2)nc2ccccc2c1=O | inconclusive: 0.316 µM [inhibitor, full curve, poor fit] |
| CS(=O)(=O)c1ccc2nc(NC(=O)CCNC(=O)c3ccccc3Cl)sc2c1 | inactive |
| COc1ccc(-c2nnc(SCC(=O)c3[nH]c(C)c(C(C)=O)c3C)o2)cc1 | inconclusive: 7.31 µM [inhibitor, partial curve, poor fit] |
| C/C=C/C(=O)N1CC2(CC(c3cccc(NC(=O)COc4ccc(Cl)cc4)c3)=NO2)C[C@@H]1C(N)=O (stereo partly drawn) | inconclusive: 25.9 µM [inhibitor, single point] |
| CCOc1ccc(OCc2ccc(C(=O)N3CCc4ccccc4C3)o2)cc1 | inconclusive: 20.6 µM [activator, single point] |
| O=c1c2ccccc2ncn1/N=C/c1ccccc1 | inconclusive: 10.3 µM [activator, partial curve] |
| COc1ccc(/C=N/NC(=O)c2ccc(N(C)S(=O)(=O)c3ccccc3)cc2)cc1OC | inactive |
| NS(=O)(=O)c1ccc(N/N=C/C=C/c2ccccc2[N+](=O)[O-])cc1 | inconclusive: 18.3 µM [activator, single point] |
| Cc1ccc(-c2nn(C)c(=O)c3ccccc23)cc1CNC(=O)c1ccco1 | inconclusive: 6.51 µM [activator, single point] |
| CCN(CC(=O)NCc1cccs1)C(=O)/C=C/c1cccc(Cl)c1Cl | inactive |

Later entries.

Compound | Potency
Cc1cccc(OCC(=O)NCC(=O)N=Nc2c(O)[nH]c3ccc([N+](=O)[O-])cc23)c1 | inactive
O=C1ON=C(c2ccc(Cl)c([N+](=O)[O-])c2)/C1=C/c1cccc([N+](=O)[O-])c1O | inconclusive: 23.1 µM [activator, partial curve, poor fit]
Cc1ccc(S(=O)(=O)CC(=O)c2ccc([N+](=O)[O-])cc2)cc1 | inconclusive: 23.1 µM [inhibitor, partial curve, poor fit]
Clc1ccc(CNc2nc(N3CCOCC3)nc(N3CCOCC3)n2)cc1 | inconclusive: 10.3 µM [inhibitor, partial curve]
Cn1c(=O)cc(OCCCC(=O)NCCCN2CCN(Cc3ccccc3)CC2)c2ccccc21 | inconclusive: 20.6 µM [activator, single point]
CC(=O)Nc1ccc(SCC(=O)c2cc(C)n(C)c2C)cc1 | inconclusive: 20.6 µM [activator, single point]
N#C/C(=C/c1ccc(-c2ccccc2[N+](=O)[O-])o1)C(=O)NCCN1CCCCC1 | inconclusive: 10.3 µM [activator, partial curve, poor fit]
CN(C)S(=O)(=O)c1cccc(C(=O)NC2CCCc3ccccc32)c1 (stereo not drawn) | inactive
Cc1ccc(S(=O)(=O)NCCC(=O)N2CC(C)OC(C)C2)cc1C (stereo not drawn) | inconclusive: 3.26 µM [activator, single point]
Cc1ccc(Sc2c([N+](=O)[O-])ncn2C)cc1 | inactive
COc1cc(N/N=C/c2ccccc2O)ncn1 | inconclusive: 8.2 µM [activator, partial curve]
COc1cc(/C=C2\SC(=S)N(CCC(=O)Nc3ccc(O)cc3)C2=O)cc(OC)c1OC | active: 23.1 µM
COc1cccc(CC2(CO)CCN(Cc3ccc(NC(C)=O)cc3)CC2)c1 | inactive
N/C(=N\N=C\c1ccc2c(c1)OCO2)c1nonc1N | inconclusive: 0.82 µM [activator, full curve]
O=C(CN1CCCCC1)NNc1nc(-c2ccccc2)c2cc(Br)ccc2n1 | inconclusive: 29.1 µM [inhibitor, single point]
CC(CCc1ccco1)NC(=O)CCc1nnc2ccc(NCc3ccccc3)nn12 (stereo not drawn) | inactive
COc1cc(C(=O)NCCCNc2nc3cc(C)c(C)cc3cc2C#N)cc(OC)c1OC | inconclusive: 23.1 µM [inhibitor, single point]
FC(F)(F)c1ccc(Cl)c(N/N=C/c2ccc(N3CCOCC3)s2)c1 | inactive
CN(C)CCCN(C(=O)c1ccc2c(c1)CCCC2)c1nc2ccc(Cl)cc2s1 | inactive
Cc1cc(Nc2ccc3c(c2)OCCO3)n2ncnc2n1 | inconclusive: 16.4 µM [activator, single point]
CCCN(C(=O)COC(=O)Cn1c(=O)oc2ccccc21)c1c(N)n(Cc2ccccc2)c(=O)[nH]c1=O | inconclusive: 0.259 µM [inhibitor, single point]
CCOC(=O)Cn1nc(-c2ccccc2)c2cnc3ccc(C)cc3c21 | inconclusive: 3.66 µM [inhibitor, single point]

— PubChem BioAssay AID504467 (National Center for Advancing Translational Sciences (NCATS), 2011)
